PubChem BioAssay AID1259254 – NCATS – 2017

- Test: 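Finding genes that stop cells copying their DNA twice in one cycle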 (primary screen)
- Cell system: human HCT116 colorectal cancer cells
- Reagent: single siRNA against human genes
- Timing: 3 days
- Measurement: 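Nuclei stained with Hoechst and imaged; cell-cycle phase assigned by DNA content; G2 share scaled per plate, non-targeting siRNA 0%, GMNN siRNA 100%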
- Reading the numbers: G2 robust z-score and G2 cells, % of GMNN control: higher = more G2 cells, more excess DNA replication
- Hit rule: 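Active siRNAs have a G2 robust z of 5 or more median absolute deviations over the median, which in these data means about 38% or higher of GMNN control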
This is one part, drawn at random, of about 59,000 reagents. Over the whole deposit, about 1,550 (2.6%) are marked active. 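G2 share is only a proxy for re-replication; each gene was hit by three separate siRNAs, and active genes were retested.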 A number with no mark means an inactive call. The numbers tell different reagents against one gene apart. Not all columns of the deposit are shown. Not given: the amount of reagent.

no.	Gene	reagent no.	G2 robust z-score	G2 cells, % of GMNN control
1	LDHAL6B (lactate dehydrogenase A like 6B)	1	-0.534	-0.793
2	LDHAL6B (lactate dehydrogenase A like 6B)	2	0.016	3.08
3	LDHAL6B (lactate dehydrogenase A like 6B)	3	-0.225	1.38
4	NKX2-5 (NK2 homeobox 5)	1	6.92 (active)	51.7
5	NKX2-5 (NK2 homeobox 5)	2	0.0538	3.35
6	NKX2-5 (NK2 homeobox 5)	3	0.503	6.51
7	GPR39 (G protein-coupled receptor 39)	1	-1.32	-6.34
8	GPR39 (G protein-coupled receptor 39)	2	-0.657	-1.65
9	GPR39 (G protein-coupled receptor 39)	3	-0.946	-3.69
10	TRNP1 (TMF1 regulated nuclear protein 1)	1	0.165	4.13
11	TRNP1 (TMF1 regulated nuclear protein 1)	2	-0.84	-2.94
12	TRNP1 (TMF1 regulated nuclear protein 1)	3	0.463	6.23
13	ZFY (zinc finger protein Y-linked)	1	0.94	9.58
14	ZFY (zinc finger protein Y-linked)	2	0.263	4.82
15	ZFY (zinc finger protein Y-linked)	3	0.491	6.42
16	QPCT (glutaminyl-peptide cyclotransferase)	1	3.47	27.4
17	QPCT (glutaminyl-peptide cyclotransferase)	2	0.496	6.46
18	QPCT (glutaminyl-peptide cyclotransferase)	3	0.229	4.58
19	OR4F3 (olfactory receptor family 4 subfamily F member 3)	1	1.53	13.7
20	OR4F3 (olfactory receptor family 4 subfamily F member 3)	2	1.09	10.6
21	OR4F3 (olfactory receptor family 4 subfamily F member 3)	3	-0.23	1.35
22	ZNF19 (zinc finger protein 19)	1	-0.339	0.584
23	ZNF19 (zinc finger protein 19)	2	0.573	7
24	ZNF19 (zinc finger protein 19)	3	1.22	11.6
25	ZMYM3 (zinc finger MYM-type containing 3)	1	2.46	20.3
26	ZMYM3 (zinc finger MYM-type containing 3)	2	-0.987	-3.97
27	ZMYM3 (zinc finger MYM-type containing 3)	3	-0.133	2.03
28	MCM5 (minichromosome maintenance complex component 5)	1	-0.769	-2.44
29	MCM5 (minichromosome maintenance complex component 5)	2	1.9	16.3
30	MCM5 (minichromosome maintenance complex component 5)	3	0.437	6.04
31	HOXC11 (homeobox C11)	1	-0.589	-1.18
32	HOXC11 (homeobox C11)	2	-1.25	-5.8
33	HOXC11 (homeobox C11)	3	-0.873	-3.17
34	RIMS1 (regulating synaptic membrane exocytosis 1)	1	0.177	4.21
35	RIMS1 (regulating synaptic membrane exocytosis 1)	2	-1.06	-4.49
36	RIMS1 (regulating synaptic membrane exocytosis 1)	3	0.542	6.78
37	DEF6 (DEF6 guanine nucleotide exchange factor)	1	-0.049	2.62
38	DEF6 (DEF6 guanine nucleotide exchange factor)	2	0.519	6.62
39	DEF6 (DEF6 guanine nucleotide exchange factor)	3	-0.582	-1.13
40	WNT6 (Wnt family member 6)	1	-0.911	-3.44
41	WNT6 (Wnt family member 6)	2	-0.891	-3.3
42	WNT6 (Wnt family member 6)	3	-0.00708	2.92
43	PPP6C (protein phosphatase 6 catalytic subunit)	1	-0.241	1.27
44	PPP6C (protein phosphatase 6 catalytic subunit)	2	-0.407	0.105
45	PPP6C (protein phosphatase 6 catalytic subunit)	3	5.35 (active)	40.6
46	DPY19L3 (dpy-19 like C-mannosyltransferase 3)	1	-0.0892	2.34
47	DPY19L3 (dpy-19 like C-mannosyltransferase 3)	2	-0.499	-0.544
48	DPY19L3 (dpy-19 like C-mannosyltransferase 3)	3	-0.0151	2.86
49	DPY19L3 (dpy-19 like C-mannosyltransferase 3)	4	0.177	4.21
50	DPY19L3 (dpy-19 like C-mannosyltransferase 3)	5	-0.295	0.891
51	DPY19L3 (dpy-19 like C-mannosyltransferase 3)	6	-0.876	-3.2
52	ZFP36L2 (ZFP36 like 2 zinc finger CCCH-type)	1	1.03	10.2
53	ZFP36L2 (ZFP36 like 2 zinc finger CCCH-type)	2	0.714	7.99
54	ZFP36L2 (ZFP36 like 2 zinc finger CCCH-type)	3	3.95	30.7

Reprinted from the entries so far for reference:
no.	Gene	reagent no.	G2 robust z-score	G2 cells, % of GMNN control
10	TRNP1 (TMF1 regulated nuclear protein 1)	1	0.165	4.13
11	TRNP1 (TMF1 regulated nuclear protein 1)	2	-0.84	-2.94
12	TRNP1 (TMF1 regulated nuclear protein 1)	3	0.463	6.23
13	ZFY (zinc finger protein Y-linked)	1	0.94	9.58
14	ZFY (zinc finger protein Y-linked)	2	0.263	4.82
15	ZFY (zinc finger protein Y-linked)	3	0.491	6.42
16	QPCT (glutaminyl-peptide cyclotransferase)	1	3.47	27.4
17	QPCT (glutaminyl-peptide cyclotransferase)	2	0.496	6.46
18	QPCT (glutaminyl-peptide cyclotransferase)	3	0.229	4.58
19	OR4F3 (olfactory receptor family 4 subfamily F member 3)	1	1.53	13.7
20	OR4F3 (olfactory receptor family 4 subfamily F member 3)	2	1.09	10.6
21	OR4F3 (olfactory receptor family 4 subfamily F member 3)	3	-0.23	1.35
22	ZNF19 (zinc finger protein 19)	1	-0.339	0.584
23	ZNF19 (zinc finger protein 19)	2	0.573	7
24	ZNF19 (zinc finger protein 19)	3	1.22	11.6

The results go on.
no.	Gene	reagent no.	G2 robust z-score	G2 cells, % of GMNN control
55	CLDN2 (claudin 2)	1	-0.334	0.618
56	CLDN2 (claudin 2)	2	3.03	24.3
57	CLDN2 (claudin 2)	3	-0.704	-1.99
58	ZNF322 (zinc finger protein 322)	1	0.399	5.77
59	ZNF322 (zinc finger protein 322)	2	-0.527	-0.744
60	ZNF322 (zinc finger protein 322)	3	1.6	14.2
61	NUBPL (NUBP iron-sulfur cluster assembly factor, mitochondrial)	1	-0.0592	2.55
62	NUBPL (NUBP iron-sulfur cluster assembly factor, mitochondrial)	2	1.3	12.1
63	NUBPL (NUBP iron-sulfur cluster assembly factor, mitochondrial)	3	-0.899	-3.36
64	KCNG1	1	0.214	4.47
65	KCNG1	2	-0.375	0.326
66	KCNG1	3	0.461	6.21
67	MSC (musculin)	1	-1.54	-7.85
68	MSC (musculin)	2	-1.17	-5.26
69	MSC (musculin)	3	1.13	10.9
70	MYO5A (myosin VA)	1	-0.0665	2.5
71	MYO5A (myosin VA)	2	-0.802	-2.68
72	MYO5A (myosin VA)	3	0.533	6.72
73	LRIT1 (leucine rich repeat, Ig-like and transmembrane domains 1)	1	0.264	4.82
74	LRIT1 (leucine rich repeat, Ig-like and transmembrane domains 1)	2	2	17.1
75	LRIT1 (leucine rich repeat, Ig-like and transmembrane domains 1)	3	0.1	3.67
76	C5AR1 (complement C5a receptor 1)	1	-1.33	-6.39
77	C5AR1 (complement C5a receptor 1)	2	-1.01	-4.14
78	C5AR1 (complement C5a receptor 1)	3	3.85	30.1
79	STAU1 (staufen double-stranded RNA binding protein 1)	1	1.1	10.7
80	STAU1 (staufen double-stranded RNA binding protein 1)	2	-0.959	-3.78
81	STAU1 (staufen double-stranded RNA binding protein 1)	3	-0.657	-1.66
82	GIMAP1 (GTPase, IMAP family member 1)	1	-0.631	-1.47
83	GIMAP1 (GTPase, IMAP family member 1)	2	1.27	11.9
84	GIMAP1 (GTPase, IMAP family member 1)	3	-0.019	2.83
85	KCTD18 (potassium channel tetramerization domain containing 18)	1	0.588	7.1
86	KCTD18 (potassium channel tetramerization domain containing 18)	2	1.4	12.8
87	KCTD18 (potassium channel tetramerization domain containing 18)	3	2.42	20
